Where a chain is given by its changes, count along the chain named. No constants are given. Whether binding was seen depends on the method and setting. Binding seen in cells or lysates may run through a third protein. A yes stands for co-enrichment or nearness to the bait. Other partners may have been found. For some of these results: A no says only that the protein was not detected with the bait. For some of these results: Where a sequence is shown, tags or fusion partners need not be part of it. Blank lines part the entries; values can stand above or below the binder they belong to.
Assays:
Experiment in all cases: affinity purification with mass spectrometry; Strep-tagged bait from low-copy plasmids in the corresponding single deletion mutants; Strep-Tactin purification from solubilized mitochondria; eluates analysed on a Q-Exactive; multiple independent analyses
[1] = molecular target: T1, Bol1-Strep (S. cerevisiae) (UniProt Q3E793)
T1 sequence: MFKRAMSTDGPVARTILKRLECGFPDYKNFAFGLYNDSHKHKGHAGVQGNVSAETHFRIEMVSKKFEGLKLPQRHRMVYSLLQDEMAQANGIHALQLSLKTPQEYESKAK

[2] = molecular target: T2, Bol3-Strep (S. cerevisiae) (UniProt P39724)
T2 sequence: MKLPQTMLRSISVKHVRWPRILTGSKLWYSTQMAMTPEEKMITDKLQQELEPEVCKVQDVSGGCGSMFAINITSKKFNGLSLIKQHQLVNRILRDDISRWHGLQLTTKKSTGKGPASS

[3] = molecular target: Nfu1-Strep (S. cerevisiae)
[4] = molecular target: T3, Bol3m (H^101C Bol3), Strep-tagged (S. cerevisiae) (UniProt P39724)
T3 sequence: T2 sequence with H101C

[5] = molecular target: T4, Bol1m (H^93C Bol1), Strep-tagged (S. cerevisiae) (UniProt Q3E793)
T4 sequence: T1 sequence with H93C

B2: Bio2 (protein, UniProt P32451 17-375)
chain: TKYATNAAVKSTTASSEASTLGALQYALSLDEPSHSWTKSQLKEIYHTPLLELTHAAQLQHRKWHDPTKVQLCTLMNIKSGGCSEDCKYCAQSSRNDTGLKAEKMVKVDEVIKEAEEAKRNGSTRFCLGAAWRDMKGRKSAMKRIQEMVTKVNDMGLETCVTLGMVDQDQAKQLKDAGLTAYNHNIDTSREHYSKVITTRTYDDRLQTIKNVQESGIKACTGGILGLGESEDDHIGFIYTLSNMSPHPESLPINRLVAIKGTPMAEELADPKSKKLQFDEILRTIATARIVMPKAIIRLAAGRYTMKETEQFVCFMAGCNSIFTGKKMLTTMCNGWDEDKAMLAKWGLQPMEAFKYDRS
binding [2]: binds
binding [3]: binds
binding [4]: binds
binding [1]: no binding

B4: Isa2 (protein, UniProt Q12425 1-185)
chain: MQAKLLFTRLNFRRPSTTLRQFPLTCFLFHSKAFYSDLVTKEPLITPKRIINKTPGLNLSISERASNRLAEIYRNSKENLRISVESGGCHGFQYNLTLEPATKPDIKNDVKDKEFSDDLDDDDSKDIIYVLPEDKGRVIIDSKSLNILNNTTLTYTNELIGSSFKIINGSLKSSCGCGSSFDIEN
binding [4]: binds
binding [1]: no binding

B6: Grx5 (protein, UniProt Q02784 30-150)
chain: LSTEIRKAIEDAIESAPVVLFMKGTPEFPKCGFSRATIGLLGNQGVDPAKFAAYNVLEDPELREGIKEFSEWPTIPQLYVNKEFIGGCDVITSMARSGELADLLEEAQALVPEEEEETKDR
binding [2]: binds
binding [3]: binds
binding [5]: no binding
binding [1]: binds

B7: Aco2 (protein, UniProt P39533 15-789)
chain: ATHANMFPSVSKNFQTKVPPYAKLLTNLDKIKQITNNAPLTLAEKILYSHLCDPEESITSSDLSTIRGNKYLKLNPDRVAMQDASAQMALLQFMTTGLNQTSVPASIHCDHLIVGKDGETKDLPSSIATNQEVFDFLESCAKRYGIQFWGPGSGIIHQIVLENFSAPGLMMLGTDSHTPNAGGLGAIAIGVGGADAVDALTGTPWELKAPKILGVKLTGKLNGWSTPKDVITKLAGLLTVRGGTGYIVEYFGEGVSTLSCTGMATICNMGAEIGATTSTFPYQEAHKRYLQATNRAEVAEAADVALNKFNFLRADKDAQYDKVIEIDLSAIEPHVNGPFTPDLSTPISQYAEKSLKENWPQKVSAGLIGSCTNSSYQDMSRVVDLVKQASKAGLKPRIPFFVTPGSEQIRATLERDGIIDIFQENGAKVLANACGPCIGQWNREDVSKTSKETNTIFTSFNRNFRARNDGNRNTMNFLTSPEIVTAMSYSGDAQFNPLTDSIKLPNGKDFKFQPPKGDELPKRGFEHGRDKFYPEMDPKPDSNVEIKVDPNSDRLQLLEPFKPWNGKELKTNVLLKVEGKCTTDHISAAGVWLKYKGHLENISYNTLIGAQNKETGEVNKAYDLDGTEYDIPGLMMKWKSDGRPWTVIAEHNYGEGSAREHAALSPRFLGGEILLVKSFARIHETNLKKQGVLPLTFANESDYDKISSGDVLETLNLVDMIAKDGNNGGEIDVKITKPNGESFTIKAKHTMSKDQIDFFKAGSAINYIGNIRRNE
binding [2]: binds
binding [3]: binds
binding [4]: binds
binding [1]: no binding

B8: Bol3 (endogenous) (protein, UniProt P39724 1-118)
chain: T2 sequence
binding [3]: no binding

B9: Aco1 (protein, UniProt P19414 17-778)
chain: ATVSNLTRDSKVNQNLLEDHSFINYKQNVETLDIVRKRLNRPFTYAEKILYGHLDDPHGQDIQRGVSYLKLRPDRVACQDATAQMAILQFMSAGLPQVAKPVTVHCDHLIQAQVGGEKDLKRAIDLNKEVYDFLASATAKYNMGFWKPGSGIIHQIVLENYAFPGALIIGTDSHTPNAGGLGQLAIGVGGADAVDVMAGRPWELKAPKILGVKLTGKMNGWTSPKDIILKLAGITTVKGGTGKIVEYFGDGVDTFSATGMGTICNMGAEIGATTSVFPFNKSMIEYLEATGRGKIADFAKLYHKDLLSADKDAEYDEVVEIDLNTLEPYINGPFTPDLATPVSKMKEVAVANNWPLDVRVGLIGSCTNSSYEDMSRSASIVKDAAAHGLKSKTIFTVTPGSEQIRATIERDGQLETFKEFGGIVLANACGPCIGQWDRRDIKKGDKNTIVSSYNRNFTSRNDGNPQTHAFVASPELVTAFAIAGDLRFNPLTDKLKDKDGNEFMLKPPHGDGLPQRGYDAGENTYQAPPADRSTVEVKVSPTSDRLQLLKPFKPWDGKDAKDMPILIKAVGKTTTDHISMAGPWLKYRGHLENISNNYMIGAINAENKKANCVKNVYTGEYKGVPDTARDYRDQGIKWVVIGDENFGEGSSREHAALEPRFLGGFAIITKSFARIHETNLKKQGLLPLNFKNPADYDKINPDDRIDILGLAELAPGKPVTMRVHPKNGKPWDAVLTHTFNDEQIEWFKYGSALNKIKADEKK
binding [2]: binds
binding [3]: binds
binding [4]: binds
binding [1]: no binding

Second part, the binder after the results:

binding [1]: binds
B1: Prx1 (protein, UniProt P34227 14-261)
chain: AWTLPKQAHLQSQTIKTFATAPILCKQFKQSDQPRLRINSDAPNFDADTTVGKINFYDYLGDSWGVLFSHPADFTPVCTTEVSAFAKLKPEFDKRNVKLIGLSVEDVESHEKWIQDIKEIAKVKNVGFPIIGDTFRNVAFLYDMVDAEGFKNINDGSLKTVRSVFVIDPKKKIRLIFTYPSTVGRNTSEVLRVIDALQLTDKEGVVTPINWQPADDVIIPPSVSNDEAKAKFGQFNEIKPYLRFTKSK

binding [2]: binds
binding [3]: binds
binding [1]: no binding
B3: Sdh2 (protein, UniProt P21801 21-266)
chain: TATTAAATHTPRLKTFKVYRWNPDEPSAKPHLQSYQVDLNDCGPMVLDALLKIKDEQDSTLTFRRSCREGICGSCAMNIGGRNTLACICKIDQNESKQLKIYPLPHMFIVKDLVPDLTNFYQQYKSIQPYLQRSSFPKDGTEVLQSIEDRKKLDGLYECILCACCSTSCPSYWWNQEQYLGPAVLMQAYRWLIDSRDQATKTRKAMLNNSMSLYRCHTIMNCTRTCPKGLNPGLAIAEIKKSLAFA

binding [2]: binds
binding [3]: binds
binding [4]: binds
binding [1]: no binding
B5: Lip5 (protein, UniProt P32875 19-414)
chain: SSTIRCGTSATRPIRSNALNTDSDNASVRVPVGNSTEVENATSQLTGTSGKRRKGNRKRITEFKDALNLGPSFADFVSGKASKMILDPLEKARQNTEEAKKLPRWLKVPIPKGTNYHKLKGDVKELGLSTVCEEARCPNIGECWGGKDKSKATATIMLLGDTCTRGCRFCSVKTNRTPSKPDPMEPENTAEAIKRWGLGYVVLTTVDRDDLVDGGANHLAETVRKIKQKAPNTLVETLSGDFRGDLKMVDIMAQCGLDVYAHNLETVESLTPHVRDRRATYRQSLSVLERAKATVPSLITKTSIMLGLGETDEQITQTLKDLRNIQCDVVTFGQYMRPTKRHMKVVEYVKPEKFDYWKERALEMGFLYCASGPLVRSSYKAGEAFIENVLKKRNMK

binding [2]: binds
binding [3]: binds
binding [4]: binds
binding [1]: no binding
B10: Lys4 (protein, UniProt P49367 18-693)
chain: LKGQNLTEKIVQSYAVNLPEGKVVHSGDYVSIKPAHCMSHDNSWPVALKFMGLGATKIKNPSQIVTTLDHDIQNKSEKNLTKYKNIENFAKKHHIDHYPAGRGIGHQIMIEEGYAFPLNMTVASDSHSNTYGGLGSLGTPIVRTDAAAIWATGQTWWQIPPVAQVELKGQLPQGVSGKDIIVALCGLFNNDQVLNHAIEFTGDSLNALPIDHRLTIANMTTEWGALSGLFPVDKTLIDWYKNRLQKLGTNNHPRINPKTIRALEEKAKIPKADKDAHYAKKLIIDLATLTHYVSGPNSVKVSNTVQDLSQQDIKINKAYLVSCTNSRLSDLQSAADVVCPTGDLNKVNKVAPGVEFYVAAASSEIEADARKSGAWEKLLKAGCIPLPSGCGPCIGLGAGLLEPGEVGISATNRNFKGRMGSKDALAYLASPAVVAASAVLGKISSPAEVLSTSEIPFSGVKTEIIENPVVEEEVNAQTEAPKQSVEILEGFPREFSGELVLCDADNINTDGIYPGKYTYQDDVPKEKMAQVCMENYDAEFRTKVHPGDIVVSGFNFGTGSSREQAATALLAKGINLVVSGSFGNIFSRNSINNALLTLEIPALIKKLREKYQGAPKELTRRTGWFLKWDVADAKVVVTEGSLDGPVILEQKVGELGKNLQEIIVKGGLEGWVKSQL
